Assay results: patent US20130287795A1
These are yes or no findings as the source states them, for the method shown. Some entries that bind do so weakly or less than the wild type. Values belong to the binder of their own block, whether it stands above or below them.

Sequences of proteins named here, by UniProt entry; tags and fusion partners are left off. Residues count along the entry.
UniProt P52800, residues 27-227: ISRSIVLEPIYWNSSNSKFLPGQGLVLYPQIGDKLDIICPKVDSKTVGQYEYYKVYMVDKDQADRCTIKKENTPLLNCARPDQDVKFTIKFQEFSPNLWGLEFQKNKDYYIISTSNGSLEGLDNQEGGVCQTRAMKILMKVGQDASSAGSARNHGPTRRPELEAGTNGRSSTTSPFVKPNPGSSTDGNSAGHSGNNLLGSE

Experiments:
[1] = biological target: recombinant mouse ephrin B2-Fc (R & D) (mouse) (UniProt P52800); assay: immunoblot (Western blot), confirmed by ELISA
[2] = biological target: recombinant mouse ephrin B2-Fc (R & D) (mouse) (UniProt P52800); assay: immunoblot; periplasmic fraction of the scFv, detected with anti c-Myc and anti-mouse peroxidase conjugate

binding [1]: binds | binding [2]: binds
B1: scFv 2B1 (human anti-ephrin B2 single chain variable fragment) (scFv)
scFv: QVQLVQSGGGLVQPGRSLRLSCAASGFTFDDYAMHWVRQAPGKGLEWVSGISWNSGSIGYADSVKGRFTISRDNAKNSLYLQMNSLRAEDTALYYCARGHRTSDAFDIWGQGTMVTVSSGGGGSGGGGSGGGGSQPVLTQPPSVSLAPGKTARITCGGDSIGLKSVHWYQQKPGQAPVLVMSSDSDRPSGIPDRFSGSNSGNTATLTITRVEAGDEADYYCQVWDSSSDHMVFGGGTKLTVLGQPKAAPSAAALEDYKDDDDKHHHHHH

binding [1]: binds | binding [2]: binds
B2: scFv B11 (human anti-ephrin B2 single chain variable fragment) (scFv)
scFv: QVQLVQSGAEVKKPGASVRLSCEASGYTFTDYYIHWVRQAPGQGLEWMGWMNPSSGNTGYAQKFQGRVTMTRNTSISTAYMELSSLRSEDTAVYYCARDITGTATGFDYWGQGTLVTVSSGGGGSGGGGSGGGGSEIVLTQSPLSLPVTLGQPASISCRSSQSLLHSNGYNYLDWYLQKPGQSPQLLIYLGSNRASGVPDRFSGSGSGTDFTLKISRVEAEDVGVYYCMQGLLSPVTFGQGTRLDIKRTVAAPTAAAEQKLISEEDLNGAALEHHHHHH
